Test results from PubChem BioAssay AID445 (National Center for Advancing Translational Sciences (NCATS), 2006).
This is one part of the list. These are further read-outs of the screen, such as a control signal, another cell line or another target. No call is given for them. Most of these compounds were active or inconclusive in the main read-out, so they are no random draw. Potencies come from curve fits of mixed quality, noted in brackets.

Experiment: IkB Signaling
Settings: ABC-DLBCL IkBa-CBG/CBR dual luciferase ratio (green luciferase fused to IkBa over red control in OCI-Ly3 lymphoma cells), 4 h; measured here: control luc red channel unless noted
Summary of the method: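 In this assay, an IκBα–CBG68 fusion accumulates when IKK-driven degradation is blocked; native CBR normalizes for cell number. OCI-Ly3 cells were treated 4 h with compound and doxycycline, then green and red light read after Chroma-Glo addition.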

| Compound | AC50 |
| --- | --- |
| Cc1cc(C)c(NC(=O)CCn2c(=O)c3cccn3c3ccccc32)c(C)c1 | 12.6 µM [falling, partial curve] |
| CCN1CCN(C(c2ccc(SC)cc2)c2c(O)cc(C)n(Cc3ccco3)c2=O)CC1 (stereo not given) | 39.8 µM [rising, single point] [measured here: IkB-luc green channel] |
| Oc1ccc(-c2nc(-c3ccccc3)c(-c3ccc(Br)cc3)[nH]2)cc1 | 12.6 µM [falling, partial curve] |
| O=C(COC(=O)C(Cc1c[nH]c2ccccc12)NC(=O)c1ccc(Cl)cc1)c1ccc(Cl)cc1 (stereo not given) | 15.8 µM [falling, partial curve] |
| COc1ccc(-c2cc(=O)c3cc(OCC(=O)OC(C)C)ccc3o2)cc1 | 31.6 µM [falling, single point] |
| COc1ccccc1-c1nnc2sc(-c3ccc(N(C)C)cc3)nn12 | 0.251 µM [rising, partial curve] |
| Cc1ccc(Cn2c(SCC(=O)NCc3ccccc3Cl)nc3ccsc3c2=O)cc1 | 10 µM [rising, partial curve] |
| CCOC(=O)c1cc2c(=O)n3ccccc3nc2n(Cc2ccco2)c1=NC(=O)c1cccc(F)c1 | 3.98 µM [falling, full curve] |
| COc1cc(NC(=O)CCCc2nnc3n(CC(C)C)c(=O)c4sccc4n23)cc(OC)c1 | 39.8 µM [falling, single point] |
| CC(C)c1ccc(NS(=O)(=O)c2ccc3[nH]cc(C(=O)NCC4CCCO4)c(=O)c3c2)cc1 (stereo not given) | 7.94 µM [falling, partial curve] |
| CCN(C(=O)c1ccc(C(C)(C)C)cc1)c1nnc(Cn2nnc3ccccc32)s1 | 7.94 µM [falling, partial curve] |
| CN(C)S(=O)(=O)c1ccc2c(c1)N(CC(=O)Nc1ccc(F)cc1)C(=O)CS2 | 12.6 µM [falling, partial curve] |
| Cc1cccc(NC(=O)c2sc3nc4c(cc3c2N)CN(C(C)C)CC4)c1 | 15.8 µM [falling, partial curve] |
| O=c1oc2ccc3ccccc3c2cc1-c1nnc(-c2ccccc2)o1 | 25.1 µM [falling, single point] |
| Cc1cccc(N2CCN(C(=O)CN3C(=O)COc4ccc(S(=O)(=O)N5CCOCC5)cc43)CC2)c1C | 31.6 µM [falling, single point] |
| CCC1CCCCN1C(=O)CSc1nc(-c2ccc(OC)c(OC)c2)cc(C(F)(F)F)n1 (stereo not given) | 20 µM [falling, partial curve] |
| Cc1ccc(Cl)cc1N1CCN(C(=O)CCCn2c(=O)[nH]c3ccc(Br)cc3c2=O)CC1 | 7.94 µM [falling, partial curve] |
| CC(C)Oc1cccc(C2CC(=O)Nc3cc4c(cc32)OCO4)c1 (stereo not given) | 0.251 µM [rising, partial curve] |
| CCOC(=O)c1cccc2c1-c1ccccc1/C2=N/O | 15.8 µM [falling, partial curve] |
| O=C(NCCS(=O)(=O)N1CCN(c2ccc(F)cc2)CC1)c1cccc(C(F)(F)F)c1 | 10 µM [falling, partial curve] |

Compounds from the list above that contain a CF3 group, in the order listed:

| Compound | AC50 |
| --- | --- |
| CCC1CCCCN1C(=O)CSc1nc(-c2ccc(OC)c(OC)c2)cc(C(F)(F)F)n1 (stereo not given) | 20 µM [falling, partial curve] |
| O=C(NCCS(=O)(=O)N1CCN(c2ccc(F)cc2)CC1)c1cccc(C(F)(F)F)c1 | 10 µM [falling, partial curve] |

(next part)

| Compound | AC50 |
| --- | --- |
| Cc1ccc(NC(=O)c2c(NC(=O)Cc3ccccc3)sc3c2CCCC3)cc1 | 3.98 µM [falling, partial curve] |
| CCOc1ccc(CCNC(=O)CN2C(=O)COc3ccc(S(=O)(=O)N4CCCCCC4)cc32)cc1 | 31.6 µM [falling, partial curve] |
| CC(=O)Nc1ccc(NC(=O)CCSCCc2ccccn2)cc1 | 0.158 µM [rising, full curve, poor fit] |
| O=C(NCc1cccnc1)c1ccc(COc2ccccc2Br)o1 | 20 µM [falling, partial curve] |
| CN(C)c1ccc(CNC(=O)c2ccc(NC(=O)N3CCCCc4ccccc43)cc2)cc1 | 25.1 µM [falling, single point] |
| COc1ccc(-n2c(SCC(=O)Nc3cccc(C)c3C)nc3c([nH]c4ccccc43)c2=O)cc1 | 31.6 µM [falling, partial curve, poor fit] |
| N#Cc1c(-n2ncnc2-c2cccc(Br)c2)sc2c1CCCCC2 | 0.794 µM [falling, full curve] |
| O=S(=O)(Nc1cc(F)ccc1F)c1ccc2[nH]c3c(c2c1)CCCCC3 | 0.2 µM [rising, full curve] |
| CC1=CCC2(CO)COC(c3ccccc3O)C1C2 (stereo not given) | 5.01 µM [rising, single point] |
| O=C(CCn1ccc2cc(S(=O)(=O)N3CCCC3)ccc21)NCc1cccc(Cl)c1 | 25.1 µM [falling, single point] |
| OC(COc1ccc2ccccc2c1Br)Cn1ccnc1 (stereo not given) | 15.8 µM [falling, partial curve] |
| c1ccc(-c2noc(-c3cccnc3)n2)cc1 | 12.6 µM [falling, partial curve] |
| Cc1ccc(NC(=O)c2ccc(CNS(=O)(=O)c3ccc4c(c3)C(C)(C)C(=O)N4C)cc2)cc1C | 3.98 µM [falling, partial curve] |
| CC(=O)N1c2ccc(S(=O)(=O)NCC3CCC(C(=O)Nc4ccc(C)c(C)c4)CC3)cc2CC1C (stereo not given) | 10 µM [falling, partial curve] |
| Cc1cccc(NC(=O)c2cc3ccccc3o2)c1 | 5.01 µM [falling, partial curve] |
| COc1ccccc1N(C(=O)c1snc(C(N)=O)c1N)C(C(=O)NCCC(C)C)c1ccco1 (stereo not given) | 15.8 µM [falling, partial curve] |
| CSCCC1NC2(C(=O)Nc3c(C)cc(Cl)cc32)[C@@H]2C(=O)N(C3CCCC3)C(=O)[C@H]12 (stereo not given in full) | 12.6 µM [falling, partial curve] |
| COc1ccc(-c2cc3n(n2)CCc2nc4ccccc4n2-3)cc1 | 3.98 µM [falling, partial curve] |
| O=C(Nc1cccc(C(=O)N2CCN(c3cccc(Cl)c3)CC2)c1)c1nsc2ccccc12 | 0.0794 µM [rising, full curve] |
| Cc1ccccc1Cn1c2ccccc2c2cnn(CC(=O)NCC(C)c3ccccc3)c(=O)c21 (stereo not given) | 2 µM [falling, full curve] |
